Here are results for 1 molecule from article doi:10.1101/054106.

Amino acid sequences for entries named in this document (tags omitted). A change or cut given only in a name is not applied to a line headed by its entry.
UniProt P23509: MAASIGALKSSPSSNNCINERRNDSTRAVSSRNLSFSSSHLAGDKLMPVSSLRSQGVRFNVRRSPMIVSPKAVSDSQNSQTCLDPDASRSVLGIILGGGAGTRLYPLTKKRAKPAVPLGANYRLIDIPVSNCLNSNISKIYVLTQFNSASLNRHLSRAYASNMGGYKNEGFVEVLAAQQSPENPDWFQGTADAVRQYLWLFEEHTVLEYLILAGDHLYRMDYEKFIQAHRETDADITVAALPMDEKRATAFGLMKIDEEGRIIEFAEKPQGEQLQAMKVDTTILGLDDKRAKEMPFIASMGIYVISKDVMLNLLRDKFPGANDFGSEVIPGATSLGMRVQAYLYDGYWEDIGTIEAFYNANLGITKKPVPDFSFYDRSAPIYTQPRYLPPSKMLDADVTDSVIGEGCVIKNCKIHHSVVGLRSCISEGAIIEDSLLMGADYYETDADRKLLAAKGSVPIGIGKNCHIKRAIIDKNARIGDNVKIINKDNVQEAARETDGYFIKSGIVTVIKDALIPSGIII

No constants are given. Whether binding was seen depends on the method and setting. Binding calls can cover weak binding; strength is not graded here. Where a sequence is shown, tags or fusion partners need not be part of it.

This test deals with potato ADP-glucose pyrophosphorylase (AGPase) small subunit, wild type (potato (S. tuberosum)) (UniProt P23509). The experiment in a line: native gel or EMSA. (Mobility shift assays separate free from complexed probe on a gel.)

B1: potato ADP-glucose pyrophosphorylase (AGPase) large subunit, wild type (enzyme, UniProt Q00081 1-470)
chain: NKIKPGVAYSVITTENDTQTVFVDMPRLERRRANPKDVAAVILGGGEGTKLFPLTSRTATPAVPVGGCYRLIDIPMSNCINSAINKIFVLTQYNSAPLNRHIARTYFGNGVSFGDGFVEVLAATQTPGEAGKKWFQGTADAVRKFIWVFEDAKNKNIENIVVLSGDHLYRMDYMELVQNHIDRNADITLSCAPAEDSRASDFGLVKIDSRGRVVQFAEKPKGFDLKAMQVDTTLVGLSPQDAKKSPYIASMGVYVFKTDVLLKLLKWSYPTSNDFGSEIIPAAIDDYNVQAYIFKDYWEDIGTIKSFYNASLALTQEFPEFQFYDPKTPFYTSPRFLPPTKIDNCKIKDAIISHGCFLRDCSVEHSIVGERSRLDCGVELKDTFMMGADYYQTESEIASLLAEGKVPIGIGENTKIRKCIIDKNAKIGKNVSIINKDGVQEADRPEEGFYIRSGIIIILEKATIRDGTVI
With B1, the binding entry is “binds”.
